# Reference: article PMC12040169 (PLOS Biology, 2025)
# The list shows a part of the results.
# Test system: T1, CTL2-GFP (C. trachomatis L2/434/Bu, GFP-expressing)
# T1 construct: L2/434/Bu, GFP-expressing
# Design: species or system HeLa; Intracellular C. trachomatis growth in HeLa cells, bulk GFP fluorescence relative to DMSO
# Details: bulk GFP, single well; 28.5 h, 10 µM; inhibitor
row,Compound,% of control remaining [%]
1,Cc1cc(C)n(CC(=O)NC(CC(=O)O)c2ccccc2Cl)n1 (stereo not shown) [CBK305695],108.351
2,CC(=O)N[C@H]1C[C@@H](Cc2cc(CCO)on2)C1(C)C [CBK289243],125.915
3,CCOC(=O)C1=C(C)Nc2nc(C)nc(Cl)c2O1 [CBK021504],178.135
4,Cn1cc(-c2nccnc2OCCOc2ccccc2)cn1 [CBK107080],100
5,Cc1nc2ccc(C(=O)N(C)Cc3ccco3)cn2c1N(C)C=O [CBK145482],106.133
6,COc1nccnc1-c1ccc(C)c(C)c1 [CBK106853],125.796
7,CN(C)Cc1cc(C[C@@H]2C[C@H](NC(=O)c3ccnc(Cl)c3)C2(C)C)no1 [CBK289311],121.344
8,O=S(=O)(Cc1cc(Cl)ccc1F)N1CCN(CCO)CC1 [CBK306385],116.938
9,O=C(Nc1ccc(N2CCN(Cc3ccccc3)CC2)cc1)c1nc[nH]n1 [CBK266960],115.45
10,C=CCn1c(SCC(=O)Nc2cccc(C(F)(F)F)c2)nnc1C12CC3CC(CC(C3)C1)C2 [CBK266054],118.598
11,Nc1nonc1-n1cc(CN2CCCCC2)nn1 [CBK307044],146.874
12,OCCCc1nc2ccccc2n1CCOc1ccccc1 [CBK297728],108.138
13,Cc1cccc2cc3c(nc12)OCCN(C)C3 [CBK285192],114.627
14,CC1CN(C(=O)CCn2c(C(F)F)cc3cccnc32)CC(C)O1 (stereo not shown) [CBK284984],145.629
15,COc1ccc(C(=O)Nc2ccccc2C(=O)Nc2cccc([N+](=O)[O-])c2)cc1 [CBK265894],128.767
16,O=C(O)c1cccc(-c2cncc(NCCCN3CCOCC3)n2)c1 [CBK037850],138.703
17,CCCCC(=O)N(C)c1c(C)nc2ccc(C(=O)Nc3ccc(C(N)=O)cc3)cn12 [CBK147066],81.9954
18,COC(=O)c1c(NS(=O)(=O)c2cccc(Cl)c2)csc1C [CBK026678],112.678
19,Cc1ccc(OCC(=O)Nc2sc3c(c2C#N)CCCC3)cc1 [CBK263548],108.761
20,O=C(C1c2ccccc2Oc2ccccc21)N1C2CCC1CC(O)(c1ccco1)C2 (stereo not shown) [CBK286169],114.325
21,Cn1c(CNC(=O)c2ccc(Cl)cc2)nnc1SCC(=O)c1ccc(Br)cc1 [CBK266145],146.67
22,CCS(=O)(=O)N1C2CCC(C2)[C@H]1COc1ccc(F)cc1 (stereo partly shown) [CBK285280],79.4432
23,S=C1NCN(Cc2ccc3c(c2)OCO3)CN1 [CBK267899],129.183
24,CC(C)C(=O)Nc1cc2cccnc2c(-c2ccsc2)n1 [CBK081259],106.302
25,CCn1c2cc(C)sc2c2cnn(CC(=O)NC(C)(C)C)c(=O)c21 [CBK284152],86.9803
26,CNC(=O)c1ccc(NC(=O)CC(C)(C)CC(=O)O)cc1 [CBK296615],140.079

row,Compound,% of control remaining [%]
1,O=C(c1cc(-c2ccc(Cl)cc2)nc2ccccc12)n1nnc2ccccc21 [CBK264640],101.344
2,O=[N+]([O-])c1cc(F)ccc1Oc1cccc(C(F)(F)F)c1 [CBK002802],87.1444
3,CC(C)(C)OC(=O)NCCNC(=O)Nc1ccccc1C(F)(F)F [CBK056940],105.949
4,Cc1ccc(C(=O)NCCNC(=O)CN2CCCC2)cc1 [CBK264103],106.009
5,CCOC(=O)N1CCC(NC(=O)N(CCN(C)C)Cc2ccccc2)CC1 [CBK155121],115.915
6,O=C(COc1ccc(C2CCCCC2)cc1)Nc1cccc(-c2nc3ncccc3o2)c1 [CBK264569],100
7,OC(CCNC1CCCCC1)(c1ccccc1)c1ccccc1 [CBK013339],110.325
8,Clc1ccccc1COc1cccc(/C=N/Nc2nc(N3CCCC3)nc(N3CCCC3)n2)c1 [CBK019076],106.848
9,Cn1cc(CCC(=O)N2CCN(Cc3ccccn3)CC2)cn1 [CBK305094],122.122
10,Cc1[nH]c2ccccc2c1-c1csc(-c2ccncc2)n1 [CBK264371],104.872
11,Cc1cc(Cl)ccc1OC(C)C(=O)Nc1cc(C(=O)O)cc(C(=O)O)c1 (stereo not shown) [CBK266483],183.284
12,c1ccc(Nc2nc(-c3ccc4c(c3)OCO4)cn3ccnc23)cc1 [CBK037494],110.036
13,CCOC(=O)C1(Cc2cc(-c3ccccc3)no2)CCCNC1 (stereo not shown) [CBK284583],88.973
14,Cc1cc(C)c2c(n1)oc1c(NC(C)C)ncnc12 [CBK287917],100.974
15,CN(C)C(=O)CCCN1C(=O)CC2(C1=O)C(=O)N(C)c1ccc(F)cc12 (stereo not shown) [CBK075380],97.7621
16,CC1CCCC(C)N1CC(O)COc1ccc(/N=C/c2ccccc2O)cc1 (stereo not shown) [CBK261748],110.258
17,CC(C)(C)OC(=O)N1CCC(CNCc2cc(F)cc(F)c2)CC1 [CBK056715],75.2563
18,COc1ccc(C(NC(=O)c2ccc(Cn3cncn3)cc2)c2ccccc2)cc1 (stereo not shown) [CBK285749],105.442
19,Nc1ccc2c(-c3ccsc3)ccnc2n1 [CBK067637],51.799
20,Fc1ccc2nc(Nc3nc(-c4ccncc4)cs3)sc2c1 [CBK287487],136.798
21,COc1cccc2cc(C3CN(C(=O)C(C)(C)NC(=O)OC(C)(C)C)CC3C(=O)O)oc12 (stereo not shown) [CBK001348],82.7629
22,CC(Oc1ccccc1)C(=O)Nc1cccc(C#N)c1 (stereo not shown) [CBK264062],123.779
23,O=CN1CCc2c([nH]c3ccccc23)C12CCN(CC1CC1)CC2 [CBK040315],168.817
24,NC(=O)C1(Cc2ccc(-c3ccccc3)cc2)CCN(C(=O)c2ccccc2)CC1 [CBK285789],124.768
25,O=C1CSC(c2ccc(F)cc2Cl)c2c[nH]nc2N1 (stereo not shown) [CBK287935],122.239
26,O=C(O)c1ccccc1C(=O)NCCC1=CCCCC1 [CBK287113],107.062

# Single entries from the entries so far:
# Entry for CCOC(=O)N1CCC(NC(=O)N(CCN(C)C)Cc2ccccc2)CC1 [CBK155121] under % of control remaining [%]: 115.915
# Entry for NC(=O)C1(Cc2ccc(-c3ccccc3)cc2)CCN(C(=O)c2ccccc2)CC1 [CBK285789] under % of control remaining [%]: 124.768
# Entry for COc1ccc(C(NC(=O)c2ccc(Cn3cncn3)cc2)c2ccccc2)cc1 (stereo not shown) [CBK285749] under % of control remaining [%]: 105.442
